Experimental data from publication PMC4434539.

T1: Mic60-FLAG (S. cerevisiae) (UniProt P36112)
T1 sequence: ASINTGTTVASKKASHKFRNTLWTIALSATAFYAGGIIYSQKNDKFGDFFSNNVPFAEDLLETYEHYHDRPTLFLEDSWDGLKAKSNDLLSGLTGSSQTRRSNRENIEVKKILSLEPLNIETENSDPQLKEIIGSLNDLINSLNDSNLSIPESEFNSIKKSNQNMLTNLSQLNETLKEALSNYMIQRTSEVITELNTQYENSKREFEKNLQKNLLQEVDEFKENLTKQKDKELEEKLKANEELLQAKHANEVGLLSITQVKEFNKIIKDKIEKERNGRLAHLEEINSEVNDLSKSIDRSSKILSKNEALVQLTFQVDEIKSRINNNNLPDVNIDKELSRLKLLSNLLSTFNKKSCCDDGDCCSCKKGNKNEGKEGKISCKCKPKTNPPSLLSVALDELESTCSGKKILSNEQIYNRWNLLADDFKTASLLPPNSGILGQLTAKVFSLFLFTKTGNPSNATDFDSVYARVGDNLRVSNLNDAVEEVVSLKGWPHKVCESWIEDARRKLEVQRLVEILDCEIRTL

T2: Mic27-EGFP (S. cerevisiae) (UniProt P50945)
T2 sequence: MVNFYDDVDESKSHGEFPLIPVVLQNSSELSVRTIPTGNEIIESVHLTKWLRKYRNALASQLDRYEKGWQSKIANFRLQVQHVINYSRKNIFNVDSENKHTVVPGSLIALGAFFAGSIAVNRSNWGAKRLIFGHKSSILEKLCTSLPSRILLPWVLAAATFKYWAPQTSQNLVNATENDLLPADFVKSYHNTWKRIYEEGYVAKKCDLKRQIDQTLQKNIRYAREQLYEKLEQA

T3: Mic19-FLAG (S. cerevisiae) (UniProt P43594)
T3 sequence: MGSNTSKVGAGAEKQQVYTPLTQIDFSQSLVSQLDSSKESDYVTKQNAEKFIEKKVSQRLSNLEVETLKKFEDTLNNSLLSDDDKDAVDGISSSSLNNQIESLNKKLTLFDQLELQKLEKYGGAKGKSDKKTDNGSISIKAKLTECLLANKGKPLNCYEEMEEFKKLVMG

B1: Mic19 (protein, UniProt P43594 1-170)
chain: T3 sequence
B2: Mic60 (protein, UniProt P36112 18-540)
chain: T1 sequence
B3: Mic10 (protein, UniProt Q96VH5 1-97)
chain: MSEQAQTQQPAKSTPSKDSNKNGSSVSTILDTKWDIVLSNMLVKTAMGFGVGVFTSVLFFKRRAFPVWLGIGFGVGRGYAEGDAIFRSSAGLRSSKV
B4: Mic12 (protein, UniProt P38341 1-106)
chain: MSKLGPLARSVKWTLSVGVIGSVFYLYRYSNNGYFYDHDATWLKQDHQVQDLVDRKEVVPGETRNRKLVVTDDGTAWSRTMGESIKDIWNEQIRNSVDWIYSWGKN
B5: Mic26 (protein, UniProt P50087 1-233)
chain: MTKDFYRQLDPVEEKIVPPENAIVISSEAKEATVNEKEAKQGVLSQRVMKYIGENELVDGISVRDPDYLKRFFNERRKQFSAKWDKVTNKIDDIAGRYYAREESFTSTIASLHTDPNERLIPGLLSILVASMTGSVLARRRTWLLRATMPIILGSCCFAYAMPTTFRNTMGLIHNLEMNTFPHFTERQDRVWKETKRLSTASVQYYYDAKKWLNKDVEKTGNAIKNWTGVNVK

Assays:
[1] = molecular target: T1, Mic60-FLAG (S. cerevisiae); test: affinity purification with mass spectrometry; ∆MICOS cells expressing Mic60-FLAG and untagged Mic19, or Mic19-FLAG and untagged Mic60, from their endogenous loci; lysate cross-linked with 1 mM DSP, 1% digitonin; α-FLAG antibody and protein G beads; on-bead trypsin digestion, LC-MS/MS
[2] = molecular target: T2, Mic27-EGFP (S. cerevisiae); test: affinity purification with mass spectrometry; Mic27-EGFP or Mic60-EGFP purified with α-GFP MicroBeads from lysates of wild type cells (Mic27-EGFP also from wild type rho^0, ∆crd1, ∆mic60 and ∆mic19 cells; Mic60-EGFP also from ∆mic19 cells); lysate cross-linked with 1 mM DSP, 1% digitonin; on-bead trypsin digestion, LC-MS/MS
[3] = molecular target: T3, Mic19-FLAG (S. cerevisiae); test: affinity purification with mass spectrometry; ∆MICOS cells expressing Mic60-FLAG and untagged Mic19, or Mic19-FLAG and untagged Mic60, from their endogenous loci; lysate cross-linked with 1 mM DSP, 1% digitonin; α-FLAG antibody and protein G beads; on-bead trypsin digestion, LC-MS/MS
[4] = molecular target: T2, Mic27-EGFP (S. cerevisiae); test: affinity purification with mass spectrometry; Mic27-EGFP purified with α-GFP MicroBeads from lysate of ∆mic60 rho^0 cells (no mtDNA); cross-linked with 1 mM DSP, 1% digitonin; LC-MS/MS
[5] = molecular target: T2, Mic27-EGFP (S. cerevisiae); test: affinity purification with mass spectrometry; Mic27-EGFP purified with α-GFP MicroBeads from cross-linked extracts of ∆mic60 ∆crd1 cells (no cardiolipin synthesis); 1 mM DSP, 1% digitonin; LC-MS/MS

Binder | binding [1] | binding [2] | binding [3] | binding [4] | binding [5]
B1 | binds | binds |  |  | 
B2 |  |  | binds |  | 
B3 |  | binds |  | no binding (only in ∆mic60 rho^0 cells) | no binding (only in ∆mic60 ∆crd1 cells)
B4 |  | binds |  | no binding (only in ∆mic60 rho^0 cells) | no binding (only in ∆mic60 ∆crd1 cells)
B5 |  | binds |  |  | no binding (only in ∆mic60 ∆crd1 cells)

These are yes or no findings as the source states them, for the method shown. Binding seen in cells or lysates may run through a third protein. These calls come from enrichment with a bait or labelling near it, and not all partners need be listed. For some assays here: No binding means not detected with the bait. Tags and fused reporters may be left off the sequences shown.
